# Test results taken from patent US11498853B2, “Water with switchable ionic strength” (QUEEN'S UNIVERSITY AT KINGSTON, priority 2010, dated 2022).
# Assays:
# [1] = Comparative solvent switching with amidine, primary and secondary amine/water systems; type: physicochemical
# [2] = Settling of clay fines in switchable water; conditions: kaolinite clay, 1 mM
# [3] = Primary amines as switchable additives, THF/water; type: physicochemical; conditions: 60° C., 60 minutes
# [4] = 3:3:1 (v/v/v) H2O, amine, THF, 90 minutes at 50° C.
compound,measurement,setting,value
CNCCO [2-(methylamino) ethanol],recombination of phases on N2 bubbling,[1]; [4],did not recombine
"C1CCC2=NCCCN2CC1 [DBU, 1,8-diazabicyclo-[5.4.0]-undec-7-ene]",recombination of phases on N2 bubbling,[1],failed to cause the phases to recombine
"CN(C)CCCCN(C)C [TMDAB, N, N, N′, N′-tetramethyl-1,4-diaminobutane]",clay suspension behaviour,[2]; no gas treatment,stable suspension
same,clay suspension behaviour,[2]; settled clay resuspended and treated with N2,the suspension was stable
same,clay suspension behaviour,[2]; suspension treated with CO2 in presence of clay,settling of the clay fines with a clean supernatant and a clear sediment line
NCCO [ethanolamine],recombination of phases on N2 bubbling,[1]; [4],did not recombine
same,recombination of phases on N2 bubbling,[3]; 5:5:1,the two phases did not recombine
NCCN [ethylenediamine],recombination of phases on N2 bubbling,[3]; 18:18:1,the two phases did not recombine
